Results from publication PMC11846196.
These are yes or no findings as the source states them, for the method shown. In cells and extracts the contact can be indirect. These calls come from enrichment with a bait or labelling near it, and not all partners need be listed.

The chains behind the UniProt entries cited, without tags or fusion partners.
UniProt Q7L576: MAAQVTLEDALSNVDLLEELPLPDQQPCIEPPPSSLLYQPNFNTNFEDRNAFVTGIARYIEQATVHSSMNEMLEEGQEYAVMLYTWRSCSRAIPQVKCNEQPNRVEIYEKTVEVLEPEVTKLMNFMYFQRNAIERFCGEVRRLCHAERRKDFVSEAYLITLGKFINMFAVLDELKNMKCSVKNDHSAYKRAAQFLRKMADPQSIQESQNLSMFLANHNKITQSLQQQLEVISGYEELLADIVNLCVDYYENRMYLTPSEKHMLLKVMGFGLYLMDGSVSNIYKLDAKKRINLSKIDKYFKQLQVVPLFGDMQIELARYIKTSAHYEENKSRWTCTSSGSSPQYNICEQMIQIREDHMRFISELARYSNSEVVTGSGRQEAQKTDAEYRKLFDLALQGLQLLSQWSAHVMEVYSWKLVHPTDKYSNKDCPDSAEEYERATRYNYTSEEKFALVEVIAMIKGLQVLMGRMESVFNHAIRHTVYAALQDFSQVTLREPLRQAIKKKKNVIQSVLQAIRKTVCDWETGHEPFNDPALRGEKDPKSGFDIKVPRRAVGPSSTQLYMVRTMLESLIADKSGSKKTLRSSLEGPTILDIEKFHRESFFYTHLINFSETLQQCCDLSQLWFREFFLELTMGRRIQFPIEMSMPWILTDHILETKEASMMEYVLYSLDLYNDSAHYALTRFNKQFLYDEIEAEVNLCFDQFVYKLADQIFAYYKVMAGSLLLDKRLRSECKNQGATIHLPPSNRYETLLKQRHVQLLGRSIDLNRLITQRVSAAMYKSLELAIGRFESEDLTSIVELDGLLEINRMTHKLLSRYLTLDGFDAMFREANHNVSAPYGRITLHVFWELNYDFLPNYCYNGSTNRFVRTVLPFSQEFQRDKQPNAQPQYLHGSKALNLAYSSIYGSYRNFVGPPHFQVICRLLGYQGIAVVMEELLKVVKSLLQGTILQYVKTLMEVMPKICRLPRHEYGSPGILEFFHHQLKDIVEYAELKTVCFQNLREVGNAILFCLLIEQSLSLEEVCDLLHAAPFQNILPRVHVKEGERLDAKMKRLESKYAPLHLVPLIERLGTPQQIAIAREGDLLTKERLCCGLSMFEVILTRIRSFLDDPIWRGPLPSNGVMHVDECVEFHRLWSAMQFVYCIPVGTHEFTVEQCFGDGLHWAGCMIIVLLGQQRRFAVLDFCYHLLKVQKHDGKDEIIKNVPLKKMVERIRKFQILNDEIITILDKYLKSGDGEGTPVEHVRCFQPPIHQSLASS
UniProt O43148: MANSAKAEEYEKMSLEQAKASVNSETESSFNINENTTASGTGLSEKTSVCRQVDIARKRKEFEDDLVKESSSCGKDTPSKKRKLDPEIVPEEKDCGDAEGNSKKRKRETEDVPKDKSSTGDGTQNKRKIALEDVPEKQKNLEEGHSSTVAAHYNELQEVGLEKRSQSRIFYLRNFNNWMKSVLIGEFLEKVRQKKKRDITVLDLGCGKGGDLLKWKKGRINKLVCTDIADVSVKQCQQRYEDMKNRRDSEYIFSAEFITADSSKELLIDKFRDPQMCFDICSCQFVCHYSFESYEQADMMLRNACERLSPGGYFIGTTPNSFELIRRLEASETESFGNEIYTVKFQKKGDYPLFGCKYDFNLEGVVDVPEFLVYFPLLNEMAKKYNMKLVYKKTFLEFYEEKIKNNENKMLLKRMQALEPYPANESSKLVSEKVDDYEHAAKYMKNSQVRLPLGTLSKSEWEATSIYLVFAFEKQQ

Biological target: Cytoplasmic FMR1 Interacting Protein 1 (human (in U2OS / OS cells)) (UniProt Q7L576)
Assay: affinity purification with mass spectrometry; U2OS cell lysis, 5 ug anti-CYFIP1 antibody with magnetic beads overnight at 4 C, washed 3 times, eluted with glycine-HCl, mass spectrum

binding: binds
Substance: RNA Guanine-7 Methyltransferase (from UniProt O43148 1-476) (enzyme)
